Test results as given in the supplement of paper PMC4256282, “Profound Activity of the Anti-cancer Drug Bortezomib against Echinococcus multilocularis Metacestodes Identifies the Proteasome as a Novel Drug Target for Cestodes” (PLoS Neglected Tropical Diseases, 2014).
Counter-ions that a name gives are not always drawn. The list shows a part of the results. Many values rest on one well or one pass, so single values are uncertain.

Test system: Echinococcus multilocularis metacestodes
Experiment: vesicle damage (PGI release) relative to positive control DB1127 at 20 µM, DMSO subtracted; higher = more parasite damage
Conditions: treatment time 5 days

Row | SMILES | vesicle damage [%]
1 | Cc1cn([C@H]2C=C[C@@H](CO)O2)c(=O)[nH]c1=O [Stavudine] | -0.0432
2 | O=c1c(-c2ccc(O)cc2)coc2cc(O)ccc12 [Daidzein] | -10.3
3 | NCCCCCC(=O)O [Aminocaproic acid] | -1.22
4 | COc1cc2/c(=N/c3ccc(Br)cc3F)nc[nH]c2cc1OCC1CCN(C)CC1 [Vandetanib] | -1.88
5 | CCC(C)(C)C(=O)O[C@H]1C[C@@H](C)C=C2C=C[C@H](C)[C@H](CC[C@@H]3C[C@@H](O)CC(=O)O3)[C@H]21 [Simvastatin] | 4.02
6 | CO[C@H]1/C=C/O[C@@]2(C)Oc3c(C)c(O)c4c(O)c(c5c(nc6cc(C)ccn65)c4c3C2=O)NC(=O)/C(C)=C\C=C\[C@H](C)[C@H](O)[C@@H](C)[C@@H](O)[C@@H](C)[C@H](OC(C)=O)[C@@H]1C [Rifaximin] | 2.72
7 | Cc1ccnc2c1NC(=O)c1cccnc1N2C1CC1 [Nevirapine] | -12
8 | CCCCCOC(=O)Nc1nc(=O)n([C@@H]2O[C@H](C)[C@@H](O)[C@H]2O)cc1F [Capecitabine] | 0.0095
9 | CCn1cc(C(=O)O)c(=O)c2cc(F)c(N3CCNC(C)C3)c(F)c21 (centres undefined) [Lomefloxacin hydrochloride] | 2.35
10 | CC1(C)O[C@@H]2C[C@H]3[C@@H]4CCC5=CC(=O)C=C[C@]5(C)[C@H]4[C@@H](O)C[C@]3(C)[C@]2(C(=O)CO)O1 [Desonide] | -2.03
11 | CN(C)[C@@H](CCOc1cccc2ccccc12)c1ccccc1 [Dapoxetine hydrochloride] | -11.2
12 | Clc1ccc(COC(Cn2ccnc2)c2ccc(Cl)cc2Cl)c(Cl)c1 (centres undefined) [Miconazole] | -10.1
13 | NS(=O)(=O)c1cc(C(=O)O)c(NCc2ccco2)cc1Cl [Furosemide] | 0.363
14 | COc1cc([C@@H]2c3cc4c(cc3[C@@H](O[C@@H]3O[C@@H]5CO[C@@H](C)O[C@H]5[C@H](O)[C@H]3O)[C@H]3COC(=O)[C@H]23)OCO4)cc(OC)c1O [Etoposide] | -1.1
15 | COc1cc([C@@H]2c3cc4c(cc3[C@@H](O[C@@H]3O[C@@H]5CO[C@@H](c6cccs6)O[C@H]5[C@H](O)[C@H]3O)[C@H]3COC(=O)[C@H]23)OCO4)cc(OC)c1O [Teniposide] | -13.6
16 | C[C@@H](c1ncncc1F)[C@](O)(Cn1cncn1)c1ccc(F)cc1F [Voriconazole] | -2.75
17 | CCc1cc(C(N)=S)ccn1 [Ethionamide] | -8.97

Row | SMILES | vesicle damage [%]
18 | O=C(CCCN1CCC(O)(c2ccc(Cl)cc2)CC1)c1ccc(F)cc1 [Haloperidol] | 1.25
19 | COC(=O)C1=C(C)NC(C)=C(C(=O)OCCN2CCN(C(c3ccccc3)c3ccccc3)CC2)C1c1cccc([N+](=O)[O-])c1 (centres undefined) [Manidipine] | 0.374
20 | CC(=O)N[C@@H](CS)C(=O)O [Acetylcysteine] | -4.07
21 | NC(=O)c1ncn([C@@H]2O[C@H](CO)[C@@H](O)[C@H]2O)c1N [Acadesine] | -14
22 | O=C(O)Cc1ccccc1Nc1c(Cl)cccc1Cl [Diclofenac sodium] | 6.19
23 | O=C1CCC(N2C(=O)c3ccccc3C2=O)C(=O)N1 (centres undefined) [Thalidomide] | -0.494
24 | O=c1[nH]cc(F)c(=O)[nH]1 [Adrucil] | -0.561
25 | CC/C(=C(\c1ccccc1)c1ccc(OCCN(C)C)cc1)c1ccccc1 [Tamoxifen Citrate] | 43.3
26 | CCc1c2c(nc3ccc(OC(=O)N4CCC(N5CCCCC5)CC4)cc13)-c1cc3c(c(=O)n1C2)COC(=O)[C@]3(O)CC [Irinotecan] | 2.49
27 | CCCCNc1ccc(C(=O)OCCN(C)C)cc1 [Tetracaine hydrochloride] | 1.75
28 | CCOc1cc(CC(=O)N[C@@H](CC(C)C)c2ccccc2N2CCCCC2)ccc1C(=O)O [Repaglinide] | -3.38
29 | NC(=O)c1cnccn1 [Pyrazinamide] | -10.2
30 | CN(C)CCCN1c2ccccc2CCc2ccc(Cl)cc21 [Clomipramine hydrochloride] | 31.2
31 | O=C(N[C@H](CO)[C@H](O)c1ccc([N+](=O)[O-])cc1)C(Cl)Cl [Chloramphenicol] | -0.769
32 | NS(=O)(=O)Cc1noc2ccccc12 [Zonisamide] | -4.09
33 | O=C1NC(=O)C(c2ccccc2)(c2ccccc2)N1 [Phenytoin] | 0.483
34 | Cc1nc2n(c(=O)c1CCN1CCC(c3noc4cc(F)ccc34)CC1)CCCC2O (centres undefined) [Paliperidone] | -10.7

Two entries drawn at random from the list so far, as already listed:
Row | SMILES | vesicle damage [%]
22 | O=C(O)Cc1ccccc1Nc1c(Cl)cccc1Cl [Diclofenac sodium] | 6.19
30 | CN(C)CCCN1c2ccccc2CCc2ccc(Cl)cc21 [Clomipramine hydrochloride] | 31.2
